# Measurements from PMC7024302, “Ultrashort Cationic Lipopeptides–Effect of N-Terminal Amino Acid and Fatty Acid Type on Antimicrobial Activity and Hemolysis” (Molecules, 2020).
# Residues, ends and D or L forms follow the SMILES beside them.
# Tests used:
# [1] = tested on: E. faecium ATCC 700221; format: cell-based, Enterococcus faecium; conditions: SI = HC50/MIC
# Source text: (§1) The Acinetobacter baumannii ATCC BAA-1605, Candida albicans ATCC 10231, Enterococcus faecium ATCC 700221, Klebsiella aerogenes ATCC 13048 (previously known as Enterobacter aerogenes), Klebsiella pneumoniae ATCC 700603, Pseudomonas aeruginosa ATCC 9027, Staphylococcus aureus ATCC 25923 and MRSA ATCC 33591, were acquired from the American Type Culture Collection (ATCC). Before running the tests, beads with cryo-protected microorganisms were transferred into fresh MHB (BioMaxima, Lublin, Poland) for bacteria or RPMI-1640 for fungi and incubated for 24 h at 37 °C. Then, the culture was seeded on the Mueller-Hinton agar (MHA) plates (BioMaxima, Lublin, Poland) for bacteria or Sabouraud dextrose agar (SDA) plates (BioMaxima, Lublin, Poland) for fungi and incubated as just mentioned. Cell densities for all assays were adjusted spectrophotometrically (Multiskan™ GO Microplate Spectrophotometer, Thermo Fisher Scientific, Vantaa, Finland) at 600 nm for bacteria and at 530 nm for fungi.
# (§2) The MICs were determined by broth microdilution method according to the Clinical and Laboratory Standard Institute guidelines. For this purpose initial inoculums of bacteria (5 × 10^5 CFU/mL) in MHB (BioMaxima, Lublin, Poland) and fungi (2 × 10^3 CFU/mL) in RPMI-1640 with 2% D-glucose (Merck, Darmstadt, Germany) prepared with MOPS (pH 7.0 ± 0.1 at 25 °C; Merck, Darmstadt, Germany) were exposed to the ranging concentration of lipopeptides (0.5–256 µg/mL) and incubated at 37 °C for 18 h and 24 h respectively. The experiments were conducted on 96-well microtiter polystyrene plates (Kartell, Italy). The MIC was taken as the lowest peptide concentration at which a noticeable growth of microorganisms was inhibited. All experiments were conducted in triplicate.
# [2] = tested on: K. aerogenes ATCC 13048; format: cell-based, Klebsiella aerogenes; conditions: SI = HC50/MIC
# Source text: as §1, §2
Compound,SI (E1) [1],SI (E2) [2]
"CCCCCCCCCCCCCC(=O)N[C@@H](Cc1c[nH]cn1)C(=O)N[C@@H](CCCNC(=N)N)C(=O)N[C@@H](CCCNC(=N)N)C(N)=O [compound 34, C14-HRR-NH2] (HELM PEPTIDE1{[CCCCCCCCCCCCCC(=O)[*:2]].H.R.R.[am]}$$$$V2.0)",6.29,0.20
"CCCCCCCCCCCCCC(=O)N[C@@H](CCCCN)C(=O)N[C@@H](CCCNC(=N)N)C(=O)N[C@@H](CCCNC(=N)N)C(N)=O [compound 42, C14-KRR-NH2] (HELM PEPTIDE1{[CCCCCCCCCCCCCC(=O)[*:2]].K.R.R.[am]}$$$$V2.0)",26.51,3.31
"CCCCCCCCCCCCCC(=O)N[C@@H](C)C(=O)N[C@@H](CCCNC(=N)N)C(=O)N[C@@H](CCCNC(=N)N)C(N)=O [compound 10, C14-ARR-NH2] (HELM PEPTIDE1{[CCCCCCCCCCCCCC(=O)[*:2]].A.R.R.[am]}$$$$V2.0)",5.14,0.16
"CCCCCCCCCCCC(=O)N[C@@H](CCCNC(=N)N)C(=O)N[C@@H](CCCNC(=N)N)C(=O)N[C@@H](CCCNC(=N)N)C(N)=O [compound 81, C12-RRR-NH2] (HELM PEPTIDE1{[CCCCCCCCCCCC(=O)[*:2]].R.R.R.[am]}$$$$V2.0)",16 (>16),–
"CCCCCCCCCCCCCC(=O)N[C@@H](CCCNC(=N)N)C(=O)N[C@@H](CCCNC(=N)N)C(=O)N[C@@H](CCCNC(=N)N)C(N)=O [compound 82, C14-RRR-NH2] (HELM PEPTIDE1{[CCCCCCCCCCCCCC(=O)[*:2]].R.R.R.[am]}$$$$V2.0)",26.42,1.65
"CCCCCCCCCCCC(=O)N[C@@H](Cc1ccc(O)cc1)C(=O)N[C@@H](CCCNC(=N)N)C(=O)N[C@@H](CCCNC(=N)N)C(N)=O [compound 101, C12-YRR-NH2] (HELM PEPTIDE1{[CCCCCCCCCCCC(=O)[*:2]].Y.R.R.[am]}$$$$V2.0)",7.69,0.96
"CCCCCCCCCCCCCC(=O)N1CCC[C@H]1C(=O)N[C@@H](CCCNC(=N)N)C(=O)N[C@@H](CCCNC(=N)N)C(N)=O [compound 74, C14-PRR-NH2]",6.68,0.21
"CCCCCCCCCCCC(=O)N[C@@H](CCC)C(=O)N[C@@H](CCCNC(=N)N)C(=O)N[C@@H](CCCNC(=N)N)C(N)=O [compound 69, C12-NvaRR-NH2] (HELM PEPTIDE1{[CCCCCCCCCCCC(=O)[*:2]].[Nva].R.R.[am]}$$$$V2.0)",12.98,0.81
"CCCCCCCCCCCCCC(=O)N[C@@H](CCS(C)(=O)=O)C(=O)N[C@@H](CCCNC(=N)N)C(=O)N[C@@H](CCCNC(=N)N)C(N)=O [compound 58, C14-M(O2)RR-NH2] (HELM PEPTIDE1{[CCCCCCCCCCCCCC(=O)[*:2]].[CS(=O)(=O)CC[C@H](N[*:1])C(=O)[*:2]].R.R.[am]}$$$$V2.0)",8.76,0.27
"CCCCCCCCCCCC(=O)N[C@H](C(=O)N[C@@H](CCCNC(=N)N)C(=O)N[C@@H](CCCNC(=N)N)C(N)=O)C(C)C [compound 93, C12-VRR-NH2] (HELM PEPTIDE1{[CCCCCCCCCCCC(=O)[*:2]].V.R.R.[am]}$$$$V2.0)",15.39,0.96
"CCCCCCCCCCCC(=O)N[C@@H](Cc1c[nH]c2ccccc12)C(=O)N[C@@H](CCCNC(=N)N)C(=O)N[C@@H](CCCNC(=N)N)C(N)=O [compound 97, C12-WRR-NH2] (HELM PEPTIDE1{[CCCCCCCCCCCC(=O)[*:2]].W.R.R.[am]}$$$$V2.0)",5.30,0.17
"CCCCCCCCCCCCCC(=O)N[C@@H](CCCC)C(=O)N[C@@H](CCCNC(=N)N)C(=O)N[C@@H](CCCNC(=N)N)C(N)=O [compound 66, C14-NleRR-NH2] (HELM PEPTIDE1{[CCCCCCCCCCCCCC(=O)[*:2]].[Nle].R.R.[am]}$$$$V2.0)",4.69,1.17
"CCCCCCCCCCCCCC(=O)N[C@H](C(=O)N[C@@H](CCCNC(=N)N)C(=O)N[C@@H](CCCNC(=N)N)C(N)=O)[C@@H](C)CC [compound 38, C14-IRR-NH2] (HELM PEPTIDE1{[CCCCCCCCCCCCCC(=O)[*:2]].I.R.R.[am]}$$$$V2.0)",19.73,1.23
"CCCCCCCCCCCCCC(=O)N[C@@H](CC(C)C)C(=O)N[C@@H](CCCNC(=N)N)C(=O)N[C@@H](CCCNC(=N)N)C(N)=O [compound 46, C14-LRR-NH2] (HELM PEPTIDE1{[CCCCCCCCCCCCCC(=O)[*:2]].L.R.R.[am]}$$$$V2.0)",3.69,0.23
"CCCCCCCCCCCC(=O)N[C@@H](CCCNC(=N)N)C(=O)N[C@@H](CCCNC(=N)N)C(N)=O [compound 3, C12-RR-NH2, reference compound] (HELM PEPTIDE1{[CCCCCCCCCCCC(=O)[*:2]].R.R.[am]}$$$$V2.0)",> 8,–
"CCCCCCCCCCCCCC(=O)NCC(=O)N[C@@H](CCCNC(=N)N)C(=O)N[C@@H](CCCNC(=N)N)C(N)=O [compound 30, C14-GRR-NH2]",3.99,0.12
"CCCCCCCCCCCCCC(=O)N[C@@H](Cc1c[nH]c2ccccc12)C(=O)N[C@@H](CCCNC(=N)N)C(=O)N[C@@H](CCCNC(=N)N)C(N)=O [compound 98, C14-WRR-NH2] (HELM PEPTIDE1{[CCCCCCCCCCCCCC(=O)[*:2]].W.R.R.[am]}$$$$V2.0)",4.61,1.15
"CCCCCCCCCCCCCC(=O)N[C@@H](CCC(N)=O)C(=O)N[C@@H](CCCNC(=N)N)C(=O)N[C@@H](CCCNC(=N)N)C(N)=O [compound 78, C14-QRR-NH2] (HELM PEPTIDE1{[CCCCCCCCCCCCCC(=O)[*:2]].Q.R.R.[am]}$$$$V2.0)",4.52,0.28
"CCCCCCCCCCCCCC(=O)N[C@@H](CCSC)C(=O)N[C@@H](CCCNC(=N)N)C(=O)N[C@@H](CCCNC(=N)N)C(N)=O [compound 50, C14-MRR-NH2] (HELM PEPTIDE1{[CCCCCCCCCCCCCC(=O)[*:2]].M.R.R.[am]}$$$$V2.0)",4.39,0.27
"CCCCCCCCCCCCCC(=O)N[C@@H](CCC)C(=O)N[C@@H](CCCNC(=N)N)C(=O)N[C@@H](CCCNC(=N)N)C(N)=O [compound 70, C14-NvaRR-NH2] (HELM PEPTIDE1{[CCCCCCCCCCCCCC(=O)[*:2]].[Nva].R.R.[am]}$$$$V2.0)",10.51,0.33
"CCCCCCCCCCCCCC(=O)N[C@@H](CC(N)=O)C(=O)N[C@@H](CCCNC(=N)N)C(=O)N[C@@H](CCCNC(=N)N)C(N)=O [compound 62, C14-NRR-NH2] (HELM PEPTIDE1{[CCCCCCCCCCCCCC(=O)[*:2]].N.R.R.[am]}$$$$V2.0)",8.05,0.50
"CCCCCCCCCC(=O)N[C@@H](Cc1ccccc1)C(=O)N[C@@H](CCCNC(=N)N)C(=O)N[C@@H](CCCNC(=N)N)C(N)=O [compound 24, C10-FRR-NH2] (HELM PEPTIDE1{[CCCCCCCCCC(=O)[*:2]].F.R.R.[am]}$$$$V2.0)",> 8,–
"CCCCCCCCCCCC(=O)N[C@@H](Cc1ccccc1)C(=O)N[C@@H](CCCNC(=N)N)C(=O)N[C@@H](CCCNC(=N)N)C(N)=O [compound 25, C12-FRR-NH2] (HELM PEPTIDE1{[CCCCCCCCCCCC(=O)[*:2]].F.R.R.[am]}$$$$V2.0)",11.40,0.36
"CCCCCCCCCCCCCC(=O)N[C@@H](CO)C(=O)N[C@@H](CCCNC(=N)N)C(=O)N[C@@H](CCCNC(=N)N)C(N)=O [compound 86, C14-SRR-NH2] (HELM PEPTIDE1{[CCCCCCCCCCCCCC(=O)[*:2]].S.R.R.[am]}$$$$V2.0)",2.60,0.32
"CCCCCCCCCCCCCC(=O)N[C@@H](CC[S+](C)[O-])C(=O)N[C@@H](CCCNC(=N)N)C(=O)N[C@@H](CCCNC(=N)N)C(N)=O (some centres unmarked) [compound 54, C14-M(O)RR-NH2] (HELM PEPTIDE1{[CCCCCCCCCCCCCC(=O)[*:2]].[CS(=O)CC[C@H](N[*:1])C(=O)[*:2]].R.R.[am]}$$$$V2.0)",7.27,–
"CCCCCCCCCC(=O)N[C@@H](Cc1c[nH]c2ccccc12)C(=O)N[C@@H](CCCNC(=N)N)C(=O)N[C@@H](CCCNC(=N)N)C(N)=O [compound 96, C10-WRR-NH2] (HELM PEPTIDE1{[CCCCCCCCCC(=O)[*:2]].W.R.R.[am]}$$$$V2.0)",16 (>16),–
